Test results from the supplement of paper PMC10331698.
± gives the standard deviation of the averaged measurements. Most values lie at the level of the controls, where differences are scatter.

What was measured:
Assay in all cases: level (log10 ratio to DMSO vehicle control); higher = higher biomarker level / cell amount than vehicle control
Perfluorodecanoic acid = compound: O=C(O)C(F)(F)C(F)(F)C(F)(F)C(F)(F)C(F)(F)C(F)(F)C(F)(F)C(F)(F)C(F)(F)F [Perfluorodecanoic acid]; details: in DMSO
Description: (§1)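 BioMAP Diversity Plus panel of 12 human primary cell co-culture systems (3C, 4H, LPS, SAg, BT, BF4T, BE3C, CASM3C, HDF3CGF, KF3CT, MyoF, Mphg). Compounds were added 1 h before stimulation and left for 24 h (MyoF 48 h; BT 72 h for soluble read-outs or 6 d for IgG). Biomarkers were read by ELISA, cytotoxicity by SRB, PBMC viability and proliferation by Alamar Blue. Each well value was divided by the mean of 8 DMSO control wells on the same plate and log10 transformed; duplicate blinded samples were tested at 4 concentrations.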

[1] = compound: C=CC(=O)OCC(F)(F)C(F)(F)C(F)(F)C(F)(F)C(F)(F)C(F)(F)C(F)(F)C(F)F [1H,1H,9H-Perfluorononyl acrylate]; details: 2200 nM; in DMSO
Description: as §1

[2] = compound: O=C(O)C(F)(F)C(F)(F)C(F)(F)C(F)(F)C(F)(F)C(F)(F)C(F)(F)F [Ammonium perfluorooctanoate]; details: 2200 nM; in DMSO
Description: as §1

[3] = compound: FC(F)(F)C(F)(F)C(F)(F)C(F)(F)C(F)(F)C(F)(F)C(F)(F)C(F)(F)CCS [2-(Perfluorooctyl)ethanthiol]; details: in DMSO
Description: as §1

Perfluorooctanamidine = compound: N=C(N)C(F)(F)C(F)(F)C(F)(F)C(F)(F)C(F)(F)C(F)(F)C(F)(F)F [Perfluorooctanamidine]; details: in DMSO
Description: as §1

[4] = compound: O=C(O)C(F)(F)OC(F)(F)C(F)(F)OC(F)(F)C(F)(F)OC(F)(F)C(F)(F)C(F)(F)C(F)(F)F [Perfluoro-3,6,9-trioxatridecanoic acid]; details: 2200 nM; in DMSO
Description: as §1

[5] = compound: OCC(F)(F)C(F)(F)C(F)(F)C(F)(F)C(F)(F)C(F)(F)C(F)(F)C(F)(F)CO [1H,1H,10H,10H-Perfluorodecane-1,10-diol]; details: 2200 nM; in DMSO
Description: as §1

Perfluorononanoic acid = compound: O=C(O)C(F)(F)C(F)(F)C(F)(F)C(F)(F)C(F)(F)C(F)(F)C(F)(F)C(F)(F)F [Perfluorononanoic acid]; details: 2200 nM; in DMSO
Description: as §1

[6] = compound: O=C(O)CCC(F)(C(F)(F)F)C(F)(F)F [4,4-bis(Trifluoromethyl)-4-fluoropropanoic acid]; details: 2200 nM; in DMSO
Description: as §1

[7] = compound: O=C(CC(=O)C(F)(F)C(F)(F)C(F)(F)F)c1cccs1 [(Perfluorobutyryl)-2-thenoylmethane]; details: 2200 nM; in DMSO
Description: as §1

[8] = compound: OCC(F)(F)OC(F)(F)C(F)(F)OC(F)(F)C(F)(F)OC(F)(F)CO [1H,1H,11H,11H-Perfluorotetraethylene glycol]; details: 2200 nM; in DMSO
Description: as §1

[9] = compound: O=C(O)C(F)(F)OC(F)(F)C(F)(F)OC(F)(F)F [Perfluoro-3,6-dioxaheptanoic acid]; details: 2200 nM; in DMSO
Description: as §1

Perfluorooctanoic acid = compound: O=C(O)C(F)(F)C(F)(F)C(F)(F)C(F)(F)C(F)(F)C(F)(F)C(F)(F)F [Perfluorooctanoic acid]; details: 2200 nM; in DMSO
Description: as §1

[10] = compound: CCOC(=O)CC(=O)C(F)(F)C(F)(F)F [Ethyl pentafluoropropionyl acetate]; details: 2200 nM; in DMSO
Description: as §1

| Test System | level (log10) (Perfluorodecanoic acid; 2200 nM) | level (log10) (Perfluorodecanoic acid; 6700 nM) | level (log10) (Perfluorodecanoic acid; 20000 nM) | level (log10) [1] | level (log10) [2] | level (log10) ([3]; 740 nM) | level (log10) ([3]; 2200 nM) | level (log10) (Perfluorooctanamidine; 2200 nM) | level (log10) (Perfluorooctanamidine; 6700 nM) | level (log10) (Perfluorooctanamidine; 20000 nM) | level (log10) (Perfluorooctanamidine; 60000 nM) | level (log10) [4] | level (log10) [5] | level (log10) (Perfluorononanoic acid) | level (log10) [6] | level (log10) [7] | level (log10) [8] | level (log10) [9] | level (log10) (Perfluorooctanoic acid) | level (log10) [10] |
| --- | --- | --- | --- | --- | --- | --- | --- | --- | --- | --- | --- | --- | --- | --- | --- | --- | --- | --- | --- | --- |
| MyoF:alpha-SM Actin | 0.018 ± 0.024 | 0.031 ± 0.027 | -0.04 ± 0.016 | -0.0145 ± 0.011 | 0.0275 ± 0.026 | 0.003 ± 0.031 | 0.0145 ± 0.013 | 0.0135 ± 0.026 | 0.0015 ± 0.054 | -0.009 ± 0.042 | 0.066 | 0.0075 ± 0.0092 | 0.004 ± 0.021 | 0.0035 ± 0.03 | 0.053 ± 0.045 | 0.01 ± 0.031 | 0 ± 0.033 | -0.0175 ± 0.0035 | -0.004 ± 0.014 | 0.0265 ± 0.025 |
| BE3C:uPA | -0.02 ± 0.02 | -0.0025 ± 0.011 | -0.38 ± 0.0099 | -0.011 ± 0.048 | 0.0065 ± 0.0035 | 0.0055 ± 0.0035 | -0.0045 ± 0.00071 | -0.0055 ± 0.013 | -0.008 ± 0.011 | -0.0095 ± 0.0078 | 0.004 | 0.0175 ± 0.0078 | -0.0035 ± 0.026 | -0.047 ± 0.033 | -0.013 ± 0.016 | 0.016 ± 0.0071 | -0.0005 ± 0.018 | -0.047 ± 0.071 | 0.0105 ± 0.021 | -0.015 ± 0.023 |
| BE3C:CXCL8/IL-8 | 0.0585 ± 0.019 | -0.0545 ± 0.069 | -0.577 ± 0.023 | 0.0165 ± 0.043 | 0.0435 ± 0.042 | 0.0695 ± 0.16 | 0.0165 ± 0.066 | 0.0735 ± 0.029 | 0.029 ± 0.042 | -0.026 ± 0.061 | -0.034 | 0.0285 ± 0.011 | -0.009 ± 0.061 | 0.0095 ± 0.015 | 0.0135 ± 0.044 | -0.021 ± 0.0085 | 0.0015 ± 0.0064 | -0.0195 ± 0.0092 | -0.021 ± 0.092 | 0.0355 ± 0.061 |
| BE3C:EGFR | 0.0115 ± 0.0035 | -0.0135 ± 0.05 | -0.149 ± 0.073 | 0.004 ± 0.013 | 0.001 ± 0.0014 | 0.043 ± 0.035 | 0.0305 ± 0.059 | 0.012 ± 0.027 | -0.009 ± 0.0014 | -0.013 ± 0.014 | -0.022 | -0.0205 ± 0.03 | -0.0135 ± 0.005 | -0.0045 ± 0.0021 | -0.0035 ± 0.025 | -0.0235 ± 0.0092 | 0.0005 ± 0.005 | 0 ± 0.045 | -0.005 ± 0.021 | -0.027 ± 0.023 |
| 4H:SRB | 0.004 ± 0.0057 | 0.003 ± 0.0099 | -0.0055 ± 0.00071 | -0.004 ± 0.02 | 0.006 ± 0.0028 | 0.0005 ± 0.026 | -0.004 ± 0.0085 | -0.011 ± 0.0099 | 0.0035 ± 0.0021 | -0.006 ± 0.0071 | -0.029 | -0.0045 ± 0.0021 | 0.002 ± 0.021 | 0.0025 ± 0.013 | -0.005 ± 0.017 | 0.001 ± 0.0042 | 0.021 ± 0.0057 | 0.007 ± 0.0071 | -0.0155 ± 0.0064 | 0.01 ± 0.021 |
| MyoF:Collagen I | 0.0095 ± 0.00071 | -0.0065 ± 0.059 | -0.417 ± 0.071 | 0.005 ± 0.033 | -0.0255 ± 0.0078 | 0.003 ± 0.0014 | -0.005 | -0.005 ± 0.024 | -0.0005 ± 0.013 | 0.007 ± 0.0085 | 0.047 | -0.011 ± 0.013 | -0.0005 ± 0.026 | -0.0425 ± 0.015 | -0.0055 ± 0.016 | -0.026 ± 0.031 | 0.0065 ± 0.018 | -0.0165 ± 0.023 | 0.0035 ± 0.005 | -0.006 ± 0.028 |
| MyoF:Collagen IV | 0.102 ± 0.018 | 0.334 ± 0.037 | 0.38 ± 0.086 | -0.0155 ± 0.049 | 0.0365 ± 0.011 | -0.01 ± 0.044 | 0.018 ± 0.065 | 0.023 ± 0.028 | 0.0195 ± 0.03 | 0.044 ± 0.018 | 0.117 | 0.046 ± 0.11 | -0.0005 ± 0.018 | 0.0255 ± 0.03 | -0.0225 ± 0.025 | 0.0035 ± 0.11 | -0.0125 ± 0.012 | 0.0005 ± 0.011 | 0.0065 ± 0.016 | -0.0035 ± 0.012 |
| lMphg:CD106/VCAM-1 | -0.0135 ± 0.015 | 0.004 ± 0.0014 | -0.0145 ± 0.053 | -0.02 ± 0.04 | 0.009 ± 0.018 | 0.002 ± 0.011 | 0.0025 ± 0.0035 | -0.0015 ± 0.018 | -0.006 ± 0.0028 | -0.008 ± 0.0057 | -0.08 | -0.005 ± 0.0085 | -0.002 | -0.0215 ± 0.011 | -0.01 ± 0.013 | 0.0065 ± 0.0035 | 0.0005 ± 0.013 | -0.002 ± 0.044 | 0.0055 ± 0.0064 | 0.01 ± 0.017 |
| MyoF:CXCL8/IL-8 | 0.0285 ± 0.069 | 0.0205 ± 0.037 | 0.0085 ± 0.016 | -0.0345 ± 0.011 | 0.0105 ± 0.012 | -0.0035 ± 0.022 | -0.0215 ± 0.018 | -0.0095 ± 0.076 | -0.003 ± 0.041 | 0.03 ± 0.0099 | 0.043 | 0.016 ± 0.048 | -0.0005 ± 0.039 | -0.0155 ± 0.076 | 0.011 ± 0.0099 | -0.019 ± 0.0071 | -0.0105 ± 0.0021 | -0.0305 ± 0.097 | 0.0115 ± 0.00071 | -0.0045 ± 0.018 |
| LPS:CD141/Thrombomodulin | -0.015 | 0.0035 ± 0.00071 | 0.002 ± 0.0057 | -0.0205 ± 0.005 | -0.0005 ± 0.0021 | -0.023 ± 0.033 | -0.022 ± 0.014 | -0.0105 ± 0.012 | -0.0235 ± 0.0078 | -0.0325 ± 0.022 | -0.01 | -0.002 ± 0.0057 | -0.001 ± 0.04 | -0.0225 ± 0.013 | 0.047 ± 0.0099 | 0.0295 ± 0.0064 | 0.025 ± 0.11 | -0.011 ± 0.0057 | 0.06 ± 0.067 | 0.047 ± 0.027 |
| LPS:CXCL8/IL-8 | 0.019 ± 0.0071 | 0.027 ± 0.0071 | 0.0115 ± 0.0064 | 0.0075 ± 0.028 | 0.0115 ± 0.036 | -0.032 ± 0.051 | -0.025 ± 0.023 | -0.003 ± 0.05 | -0.019 ± 0.027 | -0.005 ± 0.016 | -0.028 | 0.008 ± 0.0057 | 0.0105 ± 0.033 | 0.002 ± 0.0057 | 0.0535 ± 0.00071 | -0.0065 ± 0.042 | -0.0015 ± 0.029 | 0.006 ± 0.02 | 0.027 ± 0.061 | -0.0115 ± 0.018 |
| 4H:VEGFR2 | 0.002 ± 0.0057 | -0.007 ± 0.017 | -0.01 ± 0.02 | 0.0295 ± 0.012 | 0.0105 ± 0.042 | 0.014 ± 0.017 | -0.032 ± 0.0099 | 0.0205 ± 0.039 | -0.0135 ± 0.023 | -0.023 ± 0.025 | 0.064 | -0.009 ± 0.027 | 0.0185 ± 0.018 | 0.0115 ± 0.012 | 0.025 ± 0.042 | 0.002 ± 0.11 | 0.0335 ± 0.11 | 0.0235 ± 0.013 | 0.0345 ± 0.0078 | 0.0115 ± 0.019 |
